According to paper PMC6925144, “A prospective compound screening contest identified broader inhibitors for Sirtuin 1” (Scientific Reports, 2019):
The full ranking holds about 3,200 compounds; the median of “TSA(with NAD+) / Primary screening (TSA) / delta Tm (K)” is about -0.04, and the highest 2% start at about 0.37. Some of the results follow.

By UniProt entry, the sequences of proteins in these tests, tags left out. Residues count along the entry.
UniProt Q96EB6, 2-747 limits assumed: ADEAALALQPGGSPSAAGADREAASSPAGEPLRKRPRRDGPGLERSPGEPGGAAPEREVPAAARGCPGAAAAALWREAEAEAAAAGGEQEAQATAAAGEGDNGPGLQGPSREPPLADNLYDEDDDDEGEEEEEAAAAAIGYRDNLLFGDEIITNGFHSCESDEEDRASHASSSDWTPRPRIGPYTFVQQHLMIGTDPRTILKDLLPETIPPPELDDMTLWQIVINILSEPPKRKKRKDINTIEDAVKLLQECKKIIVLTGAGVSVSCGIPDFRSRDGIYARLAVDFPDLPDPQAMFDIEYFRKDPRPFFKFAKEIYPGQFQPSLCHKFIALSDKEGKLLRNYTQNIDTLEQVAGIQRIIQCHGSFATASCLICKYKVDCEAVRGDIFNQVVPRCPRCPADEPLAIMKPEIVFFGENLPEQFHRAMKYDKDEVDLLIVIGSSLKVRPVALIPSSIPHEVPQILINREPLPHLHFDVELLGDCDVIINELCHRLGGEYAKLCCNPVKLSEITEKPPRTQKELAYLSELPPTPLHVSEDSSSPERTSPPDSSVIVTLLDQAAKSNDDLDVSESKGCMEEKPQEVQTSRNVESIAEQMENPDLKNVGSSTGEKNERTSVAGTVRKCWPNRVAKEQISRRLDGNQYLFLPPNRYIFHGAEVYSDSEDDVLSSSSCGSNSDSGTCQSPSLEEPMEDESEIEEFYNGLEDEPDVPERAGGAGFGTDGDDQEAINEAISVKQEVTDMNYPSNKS

molecular target: NAD-dependent deacetylase Sirtuin 1 (human, UniProt Q96EB6); assay: primary screen, delta tm; parameters: single well (n = 1, as 'the same TSA'); conditions: 10 µM

| Compound | TSA(with NAD+) / Primary screening (TSA) / delta Tm (K) |
| --- | --- |
| CCCC(C)NC(=O)COC(=O)C1CCC(=O)N(c2ccc(OC)cc2)C1c1ccc(OC)cc1 (stereo not drawn) | -0.19 |
| Cc1ccc(OCc2nc3ccccc3n2Cc2ccccc2C)cc1 | -0.14 |
| CCOC(=O)c1sc(NC(=O)c2cnc3ccccc3n2)nc1-c1ccccc1 | 0.09 |
| Cn1c(SC2CCOC2=O)nc2ccccc21 (stereo not drawn) | -0.14 |
| CC1CN(C(C(=O)Nc2cnc3ccccc3c2)C(C)C)CC(C)O1 (stereo not drawn) | -0.01 |
| O=C(Cc1csc(-c2ccccc2)n1)Nc1ccc(N2CCN(Cc3ccccc3)CC2)cc1 | 0.09 |
| CCOc1cc(C(=O)Nc2ncc(Cc3cccc(C)c3)s2)ccc1OCC(=O)N1CCCCC1 | -0.02 |
| c1ccc2c(c1)oc1c(N3CCC4(CCOC4)C3)ncnc12 (stereo not drawn) | -0.03 |
| COC(=O)CC1c2cc(OC)c(OC)cc2CCN1Cc1ccc(C(N)=O)cc1 (stereo not drawn) | -0.08 |
| O=C(c1cc2cc(F)ccc2[nH]1)N1CCN(c2ncnc3sccc23)CC1 | -0.12 |
| Cc1onc(-c2ccccc2)c1C(=O)Nc1cccc2c1CCCC2 | -0.05 |
| CN(C(=O)CSc1ccccc1C(=O)OCc1cccc(S(=O)(=O)N(C)C)c1)C1CCCCC1 | -0.13 |
| CCCOc1ccc(C(=O)C2=C(O)C(=O)N(CCCN3CCOCC3)C2c2cccs2)cc1 (stereo not drawn) | -0.06 |
| O=C(NCCc1ccc(Cl)s1)NC1CC1 | -0.03 |
| CC(C)Cc1cc(C(=O)n2ncc(C#N)c2N)[nH]n1 | -0.18 |
| NC(=O)c1ccc(COC(=O)c2ccc3c(c2)OCC(=O)N3)cc1 | -0.03 |
| CC(=O)c1cc(C(=O)NCCc2ccc(-c3csc(C)n3)s2)n(C)c1 | -0.01 |
| CCCc1nnc(S)[nH]1 | -0.18 |
| CC1=NNC(=O)/C1=C\c1cn(-c2ccccc2)nc1-c1cc2cc(Br)ccc2oc1=O | -0.13 |
| O=C(Nc1ccc(NC(=O)N2CCCCCC2)cc1)c1nc(Cl)ccc1Cl | 0.01 |
| O=C(CN1C(=O)c2ccccc2C1=O)c1ccc2c(c1)-c1ccccc1C2 | -0.16 |
| C/C(NCc1ccccc1)=C1/Sc2ccccc2C1=O | 0.16 |
| COC(=O)c1ccc(C2NC(=O)NC3=C2C(=O)N(CC(C)O)C3)cc1 (stereo not drawn) | -0.05 |
| COC(=O)c1ccc(C2C(C(=O)c3sc(C)nc3C)=C(O)C(=O)N2CCCN2CCOCC2)cc1 (stereo not drawn) | -0.09 |

Some of the entries so far, with bars between the fields.
Compound | TSA(with NAD+) / Primary screening (TSA) / delta Tm (K)
CC1CN(C(C(=O)Nc2cnc3ccccc3c2)C(C)C)CC(C)O1 (stereo not drawn) | -0.01
O=C(c1cc2cc(F)ccc2[nH]1)N1CCN(c2ncnc3sccc23)CC1 | -0.12

(listing goes on)

| Compound | TSA(with NAD+) / Primary screening (TSA) / delta Tm (K) |
| --- | --- |
| O=C(Nc1ccc(Oc2ncccn2)cc1)c1ccc(S(=O)(=O)Nc2ccc(F)cc2)cc1 | 0.06 |
| NC(=O)c1ccc(F)c(NC(=O)C2CCCc3cccnc32)c1 (stereo not drawn) | 0.05 |
| O=C(COC(=O)CN1C(=O)c2ccccc2S1(=O)=O)Nc1ccccc1SCc1ccccc1 | 0.06 |
| Cc1nc2c(C(N)=O)ncn2c(C)c1CCC(=O)NC(c1cccs1)C(C)C (stereo not drawn) | -0.04 |
| Cc1cc(C#N)ccc1S(=O)(=O)NCCC(C)N (stereo not drawn) | -0.03 |
| O=C(Cc1ccccc1OC(F)F)Nc1cccc(-c2nnn[nH]2)c1 | -0.01 |
| Cc1nc(N2CCC(C(N)=O)CC2)c2c3c(sc2n1)CCCCC3 | 0.66 |
| O=C(CN1c2cccc3cccc(c23)S1(=O)=O)c1c[nH]c2ccccc12 | 0.22 |
| CC(CN)CN | -0.18 |
| CC1CN(C(=O)c2ccc(NC(=O)C3=COCCC3)cc2)CC(C)O1 (stereo not drawn) | -0.28 |
| COc1ccc(/C=N/c2ccc(C)cc2)cc1 | 0.01 |
| NC(=O)NCCCCC(=O)Nc1cccc(C(F)(F)F)c1 | 0.08 |
| CC(C(=O)Nc1ncccn1)N1CCC(c2c[nH]c3ccc(C(N)=O)cc23)CC1 (stereo not drawn) | -0.12 |
| O=C(O)c1cnc2c(c1)c(=O)[nH]c(=O)n2Cc1ccccc1 | -0.13 |
| c1ccc(-c2cc(-c3nc4c5ccccc5ncn4n3)[nH]n2)cc1 | -0.04 |
| Cc1c(NN=C2C(=O)NC(=S)NC2=O)c(=O)n(-c2ccccc2)n1C | 0.11 |
| OC1CCN(CCOCCOc2ccccc2)CC1 | -0.01 |
| O=C(CN1C(=O)NC2(CCCC2)C1=O)NCC12CC3CC(CC(C3)C1)C2 | -0.13 |
| O=C(c1ccc(-n2cnnn2)cc1Cl)N1CCCN2CCCC2C1 (stereo not drawn) | -0.32 |
| Cc1nc(-c2cccnc2)nc(NCCOc2cccnc2)c1C | -0.02 |
| COc1ccccc1-c1c(C)oc2cc(O)ccc2c1=O | -0.09 |
| NC(=O)c1ccc(N2CCCC2)c(NC(=O)CCc2ccc3c(c2)OCO3)c1 | -0.04 |
| Cc1ccc(S(=O)(=O)N2CCCCC2)cc1NC(=O)COC(=O)c1ccccc1SCC(=O)N1CCCC1 | -0.01 |
| O=C(Nc1ccc(NC(=O)c2ccccc2-n2cccn2)cc1)NC1CC1 | -0.01 |
